Experimental findings from PubChem BioAssay AID330 (DTP/NCI, 2004) are described below.

The list shows only some results of the screen, not a fair sample: it gathers tests that were run many times, whatever their T/C, doses with no T/C, and many T/C values between a quarter and a half above the control. Further doses and runs are listed elsewhere. T/C: endpoint of the treated group in % of that of the vehicle group. Some doses have a count of surviving animals in place of a T/C: the source files T/C as zero there, which appears to mark a toxic dose or a test without result, not a measured value. Some survivor counts are full or nearly so, which does not show that the dose was tolerated: the source hardly ever lists a survival T/C far under the control, and the zero likely stands for such cases as well. Counts of survivors are from the toxicity check (mostly the fifth day) where no day follows; animals may have died later. Schedule codes are those of the source, read here as Q, the interval in days (D) or hours (H), X, the number of doses. Some entries hold several experiments; the values are given in rising order. Some molecules as drawn cover several salts, stereoisomers or complexes of the source; a dose is that of the sample tested. Where survival is the endpoint, the PubChem record calls one and a half times the control and up active, and a quarter to a half above the control has no call in these data; cut-offs in other NCI protocols can differ. Some T/C values are followed by the survivors on the day toxicity was checked, most often the fifth; where none is given, no animal had died by that day. Marks such as (2×) count equal records among those shown.

The test system of this assay is P388 leukemia ip, CD2F1 mice, survival T/C. Kind of assay: NCI In Vivo Anticancer Drug Screen. Data for tumor model P388 Leukemia (intraperitoneal) in CD2F1 (CDF1) mice. The note with it: T/C endpoint: median survival time, higher T/C = longer survival.
Setting [1] is: dose: 0.6 mg/kg/injection, schedule: Q04DX003 (ip), vehicle: saline + alcohol.
The mark [2] stands for this setting: dose: 100.0 micrograms/kg/injection, schedule: Q01DX005 (ip), vehicle: saline + alcohol.
The mark [3] stands for this setting: dose: 200.0 micrograms/kg/injection, schedule: Q01DX005 (ip), vehicle: saline + alcohol.
[4] abbreviates: dose: 200.0 micrograms/kg/injection, schedule: Q01DX005 (ip), vehicle: water.
Where [5] appears, read: dose: 400.0 micrograms/kg/injection, schedule: Q01DX005 (ip), vehicle: saline + alcohol.
Where [6] appears, read: dose: 400.0 micrograms/kg/injection, schedule: Q01DX005 (ip), vehicle: water.
Setting [7] is: dose: 400.0 mg/kg/injection, schedule: Q04DX003 (ip), vehicle: Klucel (hydroxypropylcellulose) (HPC).
The mark [8] stands for this setting: dose: 200.0 mg/kg/injection, schedule: Q01DX005 (ip), vehicle: saline with Tween-80.

For the compound `CO[C@H]1Nc2c(ccc(C)c2O)C(=O)N2C=C(/C=C/C(N)=O)C[C@@H]12`, the T/C is, setting by setting: (dose: 0.08 mg/kg/injection, schedule: Q04DX003 (ip), vehicle: saline + alcohol) 126 % of control [7 of 8 alive]; (dose: 0.1 mg/kg/injection, schedule: Q04DX003 (ip), vehicle: saline) 128 % of control; (dose: 0.13 mg/kg/injection, schedule: Q04DX003 (ip), vehicle: saline + alcohol) 132 % of control; (dose: 0.4 mg/kg/injection, schedule: Q04DX003 (ip), vehicle: DMSO) 132 % of control; under setting [1], 146 % of control [7 of 8 alive]; (dose: 25.0 micrograms/kg/injection, schedule: Q01DX005 (ip), vehicle: saline + alcohol) 113, 115, 123 % of control (2×). For the same compound, the T/C (dose: 25.0 micrograms/kg/injection, schedule: Q01DX005 (ip), vehicle: water) is given as 117, 129, 130, 133, 134, 138 % of control; the T/C (dose: 25.0 micrograms/kg/injection, schedule: Q01DX009 (ip), vehicle: saline) was 127 % of control [5 of 6 alive]; the T/C (dose: 25.0 micrograms/kg/injection, schedule: Q04DX003 (ip), vehicle: saline with Tween-80) was 129 % of control; the T/C (dose: 50.0 micrograms/kg/injection, schedule: Q01DX005 (ip), vehicle: saline + alcohol) is 120, 121 [5 of 6 alive], 122 (2×), 130, 140, 188 % of control; the T/C (dose: 50.0 micrograms/kg/injection, schedule: Q01DX005 (ip), vehicle: water) is 121, 129, 133, 134, 137, 138 % of control; the T/C (dose: 50.0 micrograms/kg/injection, schedule: Q01DX009 (ip), vehicle: saline) is 136 % of control. The T/C was 126 % of control (dose: 50.0 micrograms/kg/injection, schedule: Q04DX003 (ip), vehicle: saline with Tween-80); 117, 122, 130, 133, 142, 160 % of control under setting [2]; 131, 132, 140, 142, 148, 153 % of control [4 of 5 alive] (dose: 100.0 micrograms/kg/injection, schedule: Q01DX005 (ip), vehicle: water); 140 % of control (dose: 100.0 micrograms/kg/injection, schedule: Q01DX009 (ip), vehicle: saline); 129 % of control (dose: 100.0 micrograms/kg/injection, schedule: Q04DX003 (ip), vehicle: saline with Tween-80); 132, 144, 150, 153, 157 [5 of 6 alive], 207 % of control [4 of 6 alive] under setting [3]. Further, the T/C was 135, 138 [5 of 6 alive], 141 [4 of 5 alive], 147, 163 % of control under setting [4]; 103, 165 [4 of 5 alive], 177 % of control under setting [5]; 151, 165, 175 % of control [5 of 6 alive] under setting [6]. Moreover, the survivor count by setting is: (dose: 0.25 mg/kg/injection, schedule: Q01DX009 (ip), vehicle: saline with Tween-80) 5 of 6; (dose: 0.5 mg/kg/injection, schedule: Q01DX009 (ip), vehicle: saline with Tween-80) 5 of 6; under setting [1], 2 of 8; (dose: 0.8 mg/kg/injection, schedule: Q04DX003 (ip), vehicle: DMSO) 5 of 6; (dose: 1.0 mg/kg/injection, schedule: Q01DX009 (ip), vehicle: saline with Tween-80) 1 of 6; (dose: 1.0 mg/kg/injection, schedule: Q04DX003 (ip), vehicle: saline + alcohol) 0 of 8 and 5 of 8. The survivor count under setting [2] was 3 of 6; the survivor count under setting [3] is on record as 1 of 6; the survivor count under setting [4] is 5 of 5; the survivor count under setting [5] is 0 of 6, 1 of 6, 5 of 6, 6 of 6; the survivor count under setting [6] is 2 of 5 and 6 of 6; the survivor count (dose: 800.0 micrograms/kg/injection, schedule: Q01DX005 (ip), vehicle: saline + alcohol) is recorded as 3 of 6.

`COC(=O)C#CC(N)=O`: the T/C (dose: 2.5 mg/kg/injection, schedule: Q01DX009 (ip), vehicle: saline sonified) is 127 % of control.

As for `CC(C)CC(=O)CC(=O)C(C)(C)C.CC(C)CC(=O)CC(=O)C(C)(C)C.[Cu]`, the survivor count runs as follows: (dose: 200.0 mg/kg/injection, schedule: Q04DX003 (ip), vehicle: Klucel (hydroxypropylcellulose) (HPC)) 6 of 6; under setting [7], 0 of 6.

In the case of `C#CC1(O)CC2c3ccc(OC)cc3CCC2(C)C1` (stereo unspecified), the survivor count was 6 of 6 (dose: 50.0 mg/kg/injection, schedule: Q01DX009 (ip), vehicle: Klucel (hydroxypropylcellulose) (HPC)); 6 of 6 (dose: 100.0 mg/kg/injection, schedule: Q01DX009 (ip), vehicle: Klucel (hydroxypropylcellulose) (HPC)); 6 of 6 (dose: 200.0 mg/kg/injection, schedule: Q01DX009 (ip), vehicle: Klucel (hydroxypropylcellulose) (HPC)).

Take `S=c1sc2ccccc2n1CN1CCOCC1`: under setting [8], the T/C is 128 and 131 % of control. The survivor count (dose: 400.0 mg/kg/injection, schedule: Q01DX005 (ip), vehicle: saline with Tween-80) is reported as 3 of 6.

Consider `CCCCCCCCCCCCCCCC(=O)N(CCC#N)C(C)(C)CCC(C)(C)N(CCC#N)C(=O)CCCCCCCCCCCCCCC`, for which the survivor count reads like this: (dose: 50.0 mg/kg/injection, schedule: Q04DX003 (ip), vehicle: Klucel (hydroxypropylcellulose) (HPC)) 6 of 6; (dose: 100.0 mg/kg/injection, schedule: Q04DX003 (ip), vehicle: Klucel (hydroxypropylcellulose) (HPC)) 6 of 6.

Turning to `Cc1cccc(Nc2nc(C)nc3[nH]cc(-c4ccccc4)c23)c1`, the survivor count by setting is: (dose: 25.0 mg/kg/injection, schedule: Q01DX005 (ip), vehicle: Klucel (hydroxypropylcellulose) (HPC)) 6 of 6; (dose: 50.0 mg/kg/injection, schedule: Q01DX005 (ip), vehicle: Klucel (hydroxypropylcellulose) (HPC)) 6 of 6; (dose: 100.0 mg/kg/injection, schedule: Q01DX005 (ip), vehicle: Klucel (hydroxypropylcellulose) (HPC)) 6 of 6.

As to `CC1CN(C(C)(C)C)CO1` (stereo unspecified), the T/C (dose: 25.0 mg/kg/injection, schedule: Q01DX005 (ip), vehicle: saline) was 126 % of control. In addition, the survivor count (dose: 100.0 mg/kg/injection, schedule: Q01DX005 (ip), vehicle: saline) is recorded as 2 of 6.

`O=C(Nc1ncnc2nc[nH]c12)NC1CCCCC1`: the survivor count by setting is: (dose: 100.0 mg/kg/injection, schedule: Q01DX005 (ip), vehicle: saline with Tween-80) 0 of 5; under setting [8], 0 of 5.

For `c1ccc2c(c1)nnn1c3cnccc3nc21`, the T/C (dose: 25.0 mg/kg/injection, schedule: Q01DX009 (ip), vehicle: saline with Tween-80) is 126 % of control [5 of 6 alive]. For the same compound, the survivor count (dose: 50.0 mg/kg/injection, schedule: Q01DX009 (ip), vehicle: saline with Tween-80) was 0 of 6.

`C=C(C)C(=NC(C)(C)C)Nc1ccc(Cl)cc1`: the survivor count (dose: 200.0 mg/kg/injection, schedule: Q01DX005 (ip), vehicle: Klucel (hydroxypropylcellulose) (HPC)) was 1 of 5. The T/C (dose: 200.0 mg/kg/injection, schedule: Q01DX009 (ip), vehicle: saline with Tween-80) was 127 and 134 % of control.

Consider `Cc1ccc2c(c1)nc(-c1ccccn1)n2CCc1ccncc1`, for which, where the note is “dose: 400.0 mg/kg/injection, schedule: Q01DX001 (ip), vehicle: saline with Tween-80”, the survivor count was 1 of 6.

In the case of `COc1ccc2n[se]nc2c1`, the survivor count (dose: 240.0 mg/kg/injection, schedule: Q01DX005 (ip), vehicle: saline with Tween-80) is 0 of 6.

On to `CC(C)(O)C1OCC(C2CCC3(C)C4=CCC5C(C)(C)C(O)CCC5(C)C4CCC23C)CC1O` (stereo unspecified), for which the T/C (dose: 1.25 mg/kg/injection, schedule: Q01DX009 (ip), vehicle: alcohol) was 130 % of control; the T/C (dose: 2.5 mg/kg/injection, schedule: Q01DX009 (ip), vehicle: alcohol) was 127 % of control; the T/C (dose: 5.0 mg/kg/injection, schedule: Q01DX009 (ip), vehicle: alcohol) was 136 % of control; the T/C (dose: 10.0 mg/kg/injection, schedule: Q01DX009 (ip), vehicle: alcohol) is 130 % of control.

Turning to `Cc1cc(Cl)ccc1-n1nc(C)c2c(N)nc(N)nc21`, the survivor count under setting [7] is listed as 0 of 6.
